# Data published in PubChem BioAssay AID1487 (National Center for Advancing Translational Sciences (NCATS), 2009).
# Among all 200,000 compounds or so, about 25 (0.01%) were called active. Inconclusive results, whose numbers are uncertain, are shown with a selection of clear calls. Calls come from the whole dose curve; as a rule, active = well fitted inhibition curve with a large enough effect in the signal ratio, with a control signal flat (not every such curve was filed as active); inconclusive = small, poorly fitted or top-dose-only effect, or effect the other way, or a change in a side signal; inactive = flat fitted curve, though single readings scatter; the % refers to the signal ratio. Where the call is inconclusive, the potency comes from a doubtful curve fit.
# Test: qHTS Assay for Modulators of Lamin A Splicing
# Conditions: HeLa LMNA splicing GFP/RFP minigene ratio, 48 h; ratio change, negative = inhibition: at 46.1 µM (top of the series) unless noted
# Procedure, shortened: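 S3 HeLa cells stably expressing lamin A-EGFP splicing minigene plus DsRed2, 600 cells/well, 48 h compound exposure at 37C. Laser-scanning cytometry; analysed as GFP (500-530 nm)/RFP (575-640 nm) total intensity ratio; 0.5% DMSO vehicle.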
# % is set by controls: 0 for no effect and ±100 for the full control effect; potency is the fitted concentration of half-maximal effect.
Structure (SMILES),"ratio change, negative = inhibition",Potency
O=C(Cc1cc(=O)[nH][nH]1)N/N=C/c1cccc(Cl)c1Cl,inconclusive: 15% [at 46 µM],
O=C(NCc1cccs1)c1ccc(Cn2c(SCc3cccc(F)c3)nc3cccnc32)cc1,inconclusive: -19.5% [at 46 µM],
COC(=O)c1sccc1NC(=O)Nc1ccccc1F,inactive,
O=S(=O)(NC1CCCCC1)c1cccc(-c2nnc(-c3ccccc3)o2)c1,,"inconclusive: 35.5 µM [falling, single point]"
O=C(/C=C\c1cn(-c2ccccc2)nc1-c1ccc2c(c1)OCCO2)N1CCOCC1,inconclusive: -16.9% [at 46 µM],
COCc1cc(C)n(CC(=O)N/N=C/c2ccc(-c3ccc(Cl)c(C(=O)O)c3)o2)c(=O)c1C#N,inconclusive: -0.28%,
O=C(OC1C2CCC1C1CN(CCc3ccccc3)CC12)c1ccccc1 (stereo not given),inconclusive: -14.5%,
Cn1c(COc2ccc3ccccc3c2)nnc1SCC(=O)O,inconclusive: -2.41%,
Clc1ccc(CCNc2nc3ccccc3s2)cc1,,"inconclusive: 15.8 µM [inhibitor, single point]"
CCOC(=O)NC(=O)CSc1nc2ccc(C)cc2[nH]1,inconclusive: -5.84% [at 46 µM],
Cn1cc(-c2ccccc2)cc(C#N)c1=O,inconclusive: 27.4% [at 46 µM],
CN1C(=O)C(Cl)(Cl)C(=O)c2ccccc21,,"inconclusive: 35.5 µM [fluorescent, single point]"
COc1ccc(NC(C)=O)cc1S(=O)(=O)N1CCc2ccccc21,inconclusive: -31.2% [at 46 µM],
CCCc1cc(C(=O)NNC(=S)NCc2ccccc2)cs1,,"inconclusive: 35.5 µM [fluorescent, single point]"
CCOC(=O)c1ccc(NC(=O)N2CCOc3ccccc32)cc1,inconclusive: 43.3% [at 46 µM],
CCN(CC)C(=O)CSc1nc(-c2ccccc2)cc(=O)[nH]1,inactive,
CCOC(=O)C(C)(C)N(Cc1ccc(C)cc1)S(=O)(=O)c1ccc(Cl)c([N+](=O)[O-])c1,,"inconclusive: 35.5 µM [falling, single point]"
O=c1cnnc(SCc2ccc([N+](=O)[O-])cc2)[nH]1,inconclusive: 23.3% [at 9.22 µM],
CCOC(=O)c1[nH]nc2c1C(=O)N(Cc1ccccc1)C2=O,inconclusive: 6.89%,
Cc1ccc(C)c(NC(=O)CSc2nc(-c3ccccc3)cc(=O)[nH]2)c1,inactive,

# A draw from above in order of SMILES length, descending.
Structure (SMILES),"ratio change, negative = inhibition",Potency
CCOC(=O)C(C)(C)N(Cc1ccc(C)cc1)S(=O)(=O)c1ccc(Cl)c([N+](=O)[O-])c1,,"inconclusive: 35.5 µM [falling, single point]"
O=C(NCc1cccs1)c1ccc(Cn2c(SCc3cccc(F)c3)nc3cccnc32)cc1,inconclusive: -19.5% [at 46 µM],
CCOC(=O)c1ccc(NC(=O)N2CCOc3ccccc32)cc1,inconclusive: 43.3% [at 46 µM],

# Additional compounds.

Structure (SMILES),"ratio change, negative = inhibition",Potency
COc1ccc2[nH]cc(CCNc3ncncc3-c3ccccc3C(F)(F)F)c2c1,inconclusive: -13.6%,
CCC(=O)Nc1ccc2c(c1)nc1n2CCN(C2CCCCC2)C1,inactive,
O=C(CC1C(=O)NCCN1Cc1ccc(-c2ccccc2)cc1)NCc1ccccc1 (stereo not given),inconclusive: 21.4% [at 46 µM],
COc1cccc(-c2nc(NC(C)C)c3ccccc3n2)c1O,inconclusive: -11.3%,
COc1ccc(N2CCN(C(CNC(=O)C(=O)NCCc3ccccc3)c3cccnc3)CC2)cc1 (stereo not given),inconclusive: -19% [at 46 µM],
c1ccc(Cc2nnc(N3CCOCC3)c3ccccc23)cc1,inactive,
O=C(Nc1nc2ccccc2n1CCN1CCOCC1)c1ccc(COc2ccccc2Br)o1,inconclusive: -47.8% [at 46 µM],
COCCN(C(=O)CCl)C(C(=O)NC1CCCCC1)c1ccccc1C (stereo not given),,"inconclusive: 35.5 µM [cytotoxic, single point]"
CN(CCOC(=O)c1cccc(Br)c1)C(C)(C)C,inactive,
O=C(NCCN1C(=O)S/C(=C\c2ccc(Cl)c(Cl)c2)C1=O)C1COc2ccccc2O1 (stereo not given),inconclusive: -4.73% [at 46 µM],
Clc1cccc(Cl)c1Cn1ccc(C2CC2)n1,inconclusive: -19.8% [at 46 µM],
O=C(COC(=O)c1ccc(NS(=O)(=O)c2ccc3c(c2)OCCO3)cc1)NC1CC1,inactive,
Cc1nn(Cc2ccccc2)c(C)c1C(=O)Nc1ccc(N2CCOCC2)cc1,inactive,
CCCc1c(C)nn(-c2ncccc2[N+](=O)[O-])c1C,inconclusive: 10.4% [at 46 µM],
c1csc(CNc2cc(-c3ccoc3)ncn2)c1,inconclusive: -29.7%,
CCCNC(=O)c1cc(S(=O)(=O)N2CCc3ccccc32)ccc1F,,"inconclusive: 35.5 µM [falling, single point]"
CC(=O)c1cc(F)c(N2CCCCCC2)cc1C,inactive,
CS(=O)(=O)Nc1ccc(C(=O)Nc2ccc(S(=O)(=O)N3CCCC3)cc2)cc1,inactive: -14.7% [at 9.22 µM],
O=C(c1cc2nc(-c3ccc(F)cc3)cc(C(F)(F)F)n2n1)N1CCCC1,inconclusive: -6.74%,
O=C(Nc1ccc(F)cc1F)c1ccc(-n2cccn2)c([N+](=O)[O-])c1,inconclusive: -11.7% [at 46 µM],
